The values that follow come from paper PMC7083938.

Amino acid sequences for entries named in this document (tags omitted). A change or cut given only in a name is not applied to a line headed by its entry. Residues count along the entry.
UniProt Q9Y6N7, residues 26-897: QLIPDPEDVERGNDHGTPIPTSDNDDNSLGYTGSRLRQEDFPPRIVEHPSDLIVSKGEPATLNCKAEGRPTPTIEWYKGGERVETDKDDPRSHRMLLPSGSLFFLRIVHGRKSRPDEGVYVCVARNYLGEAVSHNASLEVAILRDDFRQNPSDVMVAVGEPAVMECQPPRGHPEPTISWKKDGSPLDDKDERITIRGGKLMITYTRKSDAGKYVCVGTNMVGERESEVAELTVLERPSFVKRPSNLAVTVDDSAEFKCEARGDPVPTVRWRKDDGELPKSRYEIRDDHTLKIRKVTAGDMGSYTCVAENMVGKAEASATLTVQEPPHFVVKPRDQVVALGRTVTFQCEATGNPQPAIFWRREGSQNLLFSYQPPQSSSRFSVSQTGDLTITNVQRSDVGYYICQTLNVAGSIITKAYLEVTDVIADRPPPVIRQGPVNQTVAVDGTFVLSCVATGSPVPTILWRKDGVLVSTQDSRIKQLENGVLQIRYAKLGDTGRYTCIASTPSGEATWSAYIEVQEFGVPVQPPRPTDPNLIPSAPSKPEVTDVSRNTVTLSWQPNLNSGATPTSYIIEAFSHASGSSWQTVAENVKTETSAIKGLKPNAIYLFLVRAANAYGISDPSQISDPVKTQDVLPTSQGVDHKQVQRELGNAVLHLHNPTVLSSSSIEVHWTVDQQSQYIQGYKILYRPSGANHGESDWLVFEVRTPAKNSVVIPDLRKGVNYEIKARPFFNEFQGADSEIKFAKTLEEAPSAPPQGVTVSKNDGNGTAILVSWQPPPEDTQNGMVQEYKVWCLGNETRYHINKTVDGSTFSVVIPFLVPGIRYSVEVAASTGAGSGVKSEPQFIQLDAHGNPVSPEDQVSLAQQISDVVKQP
UniProt Q99435: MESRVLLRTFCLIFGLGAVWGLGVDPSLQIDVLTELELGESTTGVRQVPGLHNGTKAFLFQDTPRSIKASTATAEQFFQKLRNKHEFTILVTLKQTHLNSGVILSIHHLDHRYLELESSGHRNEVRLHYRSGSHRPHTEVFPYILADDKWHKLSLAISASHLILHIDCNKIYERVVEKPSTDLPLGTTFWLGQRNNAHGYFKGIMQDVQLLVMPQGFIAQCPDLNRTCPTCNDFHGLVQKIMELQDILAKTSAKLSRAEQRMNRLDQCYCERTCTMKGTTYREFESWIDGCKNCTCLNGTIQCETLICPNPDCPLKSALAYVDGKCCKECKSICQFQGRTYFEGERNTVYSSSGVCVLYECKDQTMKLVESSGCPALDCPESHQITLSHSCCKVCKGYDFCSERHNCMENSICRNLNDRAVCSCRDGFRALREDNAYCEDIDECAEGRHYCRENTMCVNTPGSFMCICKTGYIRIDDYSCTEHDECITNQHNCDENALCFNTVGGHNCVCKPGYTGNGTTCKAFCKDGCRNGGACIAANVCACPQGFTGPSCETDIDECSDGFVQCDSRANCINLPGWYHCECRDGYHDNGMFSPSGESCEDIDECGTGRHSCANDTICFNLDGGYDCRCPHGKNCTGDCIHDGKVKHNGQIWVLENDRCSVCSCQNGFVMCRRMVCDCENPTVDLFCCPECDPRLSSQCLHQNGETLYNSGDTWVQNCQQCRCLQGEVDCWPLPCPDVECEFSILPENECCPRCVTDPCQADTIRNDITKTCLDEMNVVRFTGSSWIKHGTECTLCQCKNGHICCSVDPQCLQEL
UniProt Q61220, residues 25-819: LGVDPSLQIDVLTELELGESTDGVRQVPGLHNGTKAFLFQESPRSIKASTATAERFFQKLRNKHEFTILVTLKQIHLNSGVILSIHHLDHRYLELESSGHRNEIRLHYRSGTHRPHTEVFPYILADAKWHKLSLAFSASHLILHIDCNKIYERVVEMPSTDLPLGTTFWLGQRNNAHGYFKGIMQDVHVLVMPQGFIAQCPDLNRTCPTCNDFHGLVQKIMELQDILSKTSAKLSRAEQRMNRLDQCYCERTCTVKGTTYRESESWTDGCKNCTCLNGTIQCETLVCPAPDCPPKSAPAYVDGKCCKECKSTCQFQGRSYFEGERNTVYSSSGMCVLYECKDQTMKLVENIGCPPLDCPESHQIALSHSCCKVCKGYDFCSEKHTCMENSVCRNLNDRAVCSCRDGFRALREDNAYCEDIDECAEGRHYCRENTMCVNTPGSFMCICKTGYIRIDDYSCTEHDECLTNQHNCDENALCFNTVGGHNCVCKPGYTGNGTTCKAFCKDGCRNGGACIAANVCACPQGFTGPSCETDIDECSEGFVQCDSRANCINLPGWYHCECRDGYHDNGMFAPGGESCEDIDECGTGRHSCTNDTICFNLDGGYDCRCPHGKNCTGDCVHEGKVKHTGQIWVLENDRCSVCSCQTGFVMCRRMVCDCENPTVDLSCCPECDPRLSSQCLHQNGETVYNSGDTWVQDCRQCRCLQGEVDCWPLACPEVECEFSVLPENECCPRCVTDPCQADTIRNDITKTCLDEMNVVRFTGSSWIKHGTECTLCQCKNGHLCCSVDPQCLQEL

No constants are given. Whether binding was seen depends on the method and setting. Some entries that bind do so weakly or less than the wild type.

Assay [1] concerns the target human Robo1 ectodomain (ECIA construct) (human) (UniProt Q9Y6N7). Kind of assay: extracellular interactome assay (ECIA), ELISA-like; bait and prey constructs (pECIA-bait, pECIA-prey) secreted in conditioned media; levels normalised by western blot for mutants. (An ELISA detects its analyte on a solid surface through an enzyme-linked reagent.)
Assay [2] concerns the target T1, mouse Robo3.1 on COS-7 cells (mouse) (UniProt Q9Z2I4).
T1 sequence: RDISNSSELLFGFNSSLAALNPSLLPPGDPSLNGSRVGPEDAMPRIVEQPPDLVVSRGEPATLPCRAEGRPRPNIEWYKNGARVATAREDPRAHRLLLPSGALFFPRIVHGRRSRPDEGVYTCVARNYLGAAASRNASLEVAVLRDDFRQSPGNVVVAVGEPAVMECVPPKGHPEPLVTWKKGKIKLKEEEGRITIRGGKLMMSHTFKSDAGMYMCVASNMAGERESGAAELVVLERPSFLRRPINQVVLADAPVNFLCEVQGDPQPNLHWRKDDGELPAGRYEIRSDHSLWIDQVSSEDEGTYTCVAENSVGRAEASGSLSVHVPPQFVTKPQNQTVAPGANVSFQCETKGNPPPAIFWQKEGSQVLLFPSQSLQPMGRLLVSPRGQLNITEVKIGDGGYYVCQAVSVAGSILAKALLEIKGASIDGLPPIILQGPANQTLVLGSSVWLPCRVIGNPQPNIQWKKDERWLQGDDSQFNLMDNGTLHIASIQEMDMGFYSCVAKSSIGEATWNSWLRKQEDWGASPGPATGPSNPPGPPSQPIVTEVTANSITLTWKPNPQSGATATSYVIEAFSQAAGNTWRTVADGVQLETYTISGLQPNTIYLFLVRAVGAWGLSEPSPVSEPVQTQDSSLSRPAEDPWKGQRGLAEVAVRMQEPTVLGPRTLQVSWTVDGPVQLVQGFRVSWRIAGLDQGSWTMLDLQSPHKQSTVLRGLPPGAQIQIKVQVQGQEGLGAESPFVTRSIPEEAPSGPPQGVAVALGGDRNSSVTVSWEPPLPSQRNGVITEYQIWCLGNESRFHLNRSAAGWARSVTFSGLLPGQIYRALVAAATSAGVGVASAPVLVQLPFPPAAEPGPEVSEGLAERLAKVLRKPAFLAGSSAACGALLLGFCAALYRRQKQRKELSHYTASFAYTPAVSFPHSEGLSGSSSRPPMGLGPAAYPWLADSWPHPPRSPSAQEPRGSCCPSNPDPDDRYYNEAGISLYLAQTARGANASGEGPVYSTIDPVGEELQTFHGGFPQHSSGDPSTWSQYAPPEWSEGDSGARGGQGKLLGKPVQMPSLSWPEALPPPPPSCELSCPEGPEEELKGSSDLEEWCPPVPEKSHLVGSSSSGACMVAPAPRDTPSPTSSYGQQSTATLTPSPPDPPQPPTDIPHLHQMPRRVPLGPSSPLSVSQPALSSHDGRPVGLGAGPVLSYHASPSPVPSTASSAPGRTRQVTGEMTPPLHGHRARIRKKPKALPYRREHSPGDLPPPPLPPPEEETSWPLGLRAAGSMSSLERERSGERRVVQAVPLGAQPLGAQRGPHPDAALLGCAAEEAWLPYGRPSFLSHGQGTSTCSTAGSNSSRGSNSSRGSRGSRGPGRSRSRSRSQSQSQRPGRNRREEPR
Nature of the assay: AP-fusion protein binding assay on cells; AP-fusion proteins in conditioned medium diluted in AP-binding buffer (HBSS, 20 mM HEPES pH 7.0, 0.2% BSA, 5 mM CaCl2, 1 mM MgCl2, 2 µg/ml heparin), 90 min at 4 °C on receptor-expressing COS-7 cells; AP activity visualised with NBT/BCIP.

For assay [3], the target named is T2, human Robo3 FN1 left after proteolysis of hRobo3 FN1–3 in crystallization drops (human) (UniProt Q96MS0).
T2 sequence: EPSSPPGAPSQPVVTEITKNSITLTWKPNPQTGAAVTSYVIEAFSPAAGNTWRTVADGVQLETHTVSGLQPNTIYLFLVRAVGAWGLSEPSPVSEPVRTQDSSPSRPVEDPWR
Nature of the assay: crystal structure; sitting-drop vapor diffusion; complexes isolated by SEC, 15 mg/ml in HBS; both purified. A general note: SEC sorts molecules by how far they enter the pores of the column.

The target of assay [4] is T3, mouse Robo3 ectodomain (mouse) (UniProt Q9Z2I4).
T3 sequence (chain, biotin (NHS-Biotin) where captured on the SA chip for SPR): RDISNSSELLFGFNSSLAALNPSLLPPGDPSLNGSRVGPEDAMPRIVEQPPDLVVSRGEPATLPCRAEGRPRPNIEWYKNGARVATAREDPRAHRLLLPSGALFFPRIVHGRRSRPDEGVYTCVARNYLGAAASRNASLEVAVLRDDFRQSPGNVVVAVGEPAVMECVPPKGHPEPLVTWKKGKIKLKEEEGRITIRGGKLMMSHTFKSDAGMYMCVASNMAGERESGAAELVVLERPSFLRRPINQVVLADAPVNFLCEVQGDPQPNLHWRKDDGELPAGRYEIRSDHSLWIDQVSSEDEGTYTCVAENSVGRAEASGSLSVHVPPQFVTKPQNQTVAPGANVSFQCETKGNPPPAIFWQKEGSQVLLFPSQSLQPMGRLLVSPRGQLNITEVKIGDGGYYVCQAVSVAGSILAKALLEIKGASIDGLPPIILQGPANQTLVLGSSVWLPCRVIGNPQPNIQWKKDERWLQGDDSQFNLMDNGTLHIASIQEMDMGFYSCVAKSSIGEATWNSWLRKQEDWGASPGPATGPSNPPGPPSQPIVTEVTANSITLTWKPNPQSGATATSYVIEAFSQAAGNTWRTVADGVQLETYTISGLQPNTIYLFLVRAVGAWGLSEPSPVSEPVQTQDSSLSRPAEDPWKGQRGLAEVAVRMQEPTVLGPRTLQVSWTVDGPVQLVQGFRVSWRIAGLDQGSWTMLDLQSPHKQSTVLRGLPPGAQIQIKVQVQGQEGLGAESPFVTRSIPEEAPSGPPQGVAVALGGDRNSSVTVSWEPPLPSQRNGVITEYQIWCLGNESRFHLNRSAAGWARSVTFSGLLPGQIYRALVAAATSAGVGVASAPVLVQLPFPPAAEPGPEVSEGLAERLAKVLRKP
Kind of assay: SPR; mRobo3 ECD (167 RU) and mRobo1^Robo3-FN1 ECD (177 RU) biotinylated with NHS-Biotin and captured on a Biacore Series S SA chip; full-length mNELL2 as analyte; 1:1 Langmuir isotherm with a linear nonspecific-binding term; regeneration with 10 mM EDTA; both purified. On the technique in general: SPR reads the build-up and loss of mass on a sensor chip optically.

For “full-length human NELL2 (ECIA construct) (from UniProt Q99435 22-816) (ligand)”, the binding entry in assay [1] was “binds weakly”. Turning to “human NELL2-alkaline phosphatase fusion (NELL2-AP) (from UniProt Q99435 22-816) (ligand)”, the binding entry in assay [2] is listed as “binds”. As to “human NELL2 EGF domains 1-6 (from UniProt Q99435 397-638) (domain or fragment)”, in assay [3], the binding entry is reported as “binds”. Take “full-length mouse NELL2 (from UniProt Q61220 25-819) (ligand)”: in assay [4], the binding result is “binds”.
